{
  "source": "patent US11707436B2",
  "about": "“Methods of treating inflammatory disorders and global inflammation with compositions comprising phospholipid nanoparticle encapsulations of NSAIDS” (NanoSphere Health Sciences, LLC, priority 2014, dated 2023)",
  "origin": "cited, not measured here",
  "key": {"[1]": {"conditions": "rats, oral dosing"}},
  "data": [
    {"smiles": "COc1ccc2cc([C@H](C)C(=O)O)ccc2c1", "note": "[Naproxen]", "values": [
      {"measurement": "potency at NF-kappaB inhibition relative to Ibuprofen", "setting": "NF-KappaB; versus Ibuprofen", "value": 3.5, "unit": "times"},
      {"measurement": "potency at NF-kappaB inhibition relative to aspirin", "setting": "NF-KappaB; versus aspirin", "value": 6, "unit": "times"},
      {"measurement": "brain levels as share of that in plasma", "setting": "[1]", "value": "about 1%"}
    ]}
  ]
}
